The text below walks through data of US20240117326A1.

By UniProt entry, the sequences of proteins in these tests, tags left out. Where a name states a change or a piece, a line headed by the entry shows the natural chain unless it says otherwise.
UniProt P16267: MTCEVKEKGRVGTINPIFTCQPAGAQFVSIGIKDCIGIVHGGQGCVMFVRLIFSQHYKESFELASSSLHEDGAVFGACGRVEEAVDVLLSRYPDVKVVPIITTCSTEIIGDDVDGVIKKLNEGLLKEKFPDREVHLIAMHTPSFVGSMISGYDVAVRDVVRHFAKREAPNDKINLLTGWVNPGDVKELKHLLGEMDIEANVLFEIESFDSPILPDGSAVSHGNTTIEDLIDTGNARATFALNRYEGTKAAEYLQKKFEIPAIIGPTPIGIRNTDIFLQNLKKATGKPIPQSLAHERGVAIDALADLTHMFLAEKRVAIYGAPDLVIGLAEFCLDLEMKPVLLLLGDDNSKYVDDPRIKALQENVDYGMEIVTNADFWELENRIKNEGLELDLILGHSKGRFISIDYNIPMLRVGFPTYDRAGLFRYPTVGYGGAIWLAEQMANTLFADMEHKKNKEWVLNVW
UniProt P16266: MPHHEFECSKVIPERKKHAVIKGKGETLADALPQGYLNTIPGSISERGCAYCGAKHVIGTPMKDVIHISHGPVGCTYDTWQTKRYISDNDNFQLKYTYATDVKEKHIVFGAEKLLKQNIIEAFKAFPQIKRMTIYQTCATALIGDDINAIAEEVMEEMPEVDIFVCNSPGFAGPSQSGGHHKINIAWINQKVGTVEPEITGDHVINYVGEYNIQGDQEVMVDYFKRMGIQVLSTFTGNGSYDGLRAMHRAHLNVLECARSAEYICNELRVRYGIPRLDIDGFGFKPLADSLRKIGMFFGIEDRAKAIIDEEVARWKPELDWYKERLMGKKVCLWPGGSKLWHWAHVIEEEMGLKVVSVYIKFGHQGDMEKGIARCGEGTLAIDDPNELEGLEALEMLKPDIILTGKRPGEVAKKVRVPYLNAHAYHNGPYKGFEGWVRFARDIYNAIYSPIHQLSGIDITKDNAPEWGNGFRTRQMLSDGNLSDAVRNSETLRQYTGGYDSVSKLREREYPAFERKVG

Results are given in words; binding and its absence hold for the method and conditions named. Binding seen in cells or lysates may run through a third protein. Some results given as binding are weak or reduced against the parent protein; the word gives no strength.

Test [1] addresses MPP-processed MTP-CoxIV::Twin Strep::AnfK fusion polypeptide (gene of SN195; in SL34, SL37, SL43) (Azotobacter vinelandii) (UniProt P16267). Nature of the test: LC-MS and targeted MRM of the eluate of the TwinStrep::AnfK purification (SL37, anaerobic).
Test [2] shares this target. Nature of the test: co-purification on Strep-tactin XT column through TwinStrep::AnfK (SL37), anaerobic; anti-HA Western blot of the eluate.
The target of test [3] is MPP-processed MTP-CoxIV::TwinStrep::AvAnfG fusion polypeptide (in SL93) (Azotobacter vinelandii). Nature of the test: co-purification on Strep-tactin XT column through TwinStrep::AnfG (SL93), anaerobic; anti-HA Western blot and LC-MS of the eluate. For orientation: A western blot detects proteins with antibodies after separation by electrophoresis.

For the substance “MPP-processed MTP-FAγ51::AnfD::HA fusion polypeptide (gene of SN81; in SL37) (from UniProt P16266 1-518) (enzyme)”, the binding result in test [1] and in test [2] was “binds” in each case.
For “MPP-processed MTP-FAγ51::HA::AnfD fusion polypeptide (gene of SN161; in SL26, SL34, SL43, SL93) (from UniProt P16266 1-518) (enzyme)”, the binding result in test [3] is given as “binds”.
